Laboratory results taken from publication doi:10.1101/2020.02.21.960088.
Results are given in words; binding and its absence hold for the method and conditions named. In cells and extracts the contact can be indirect. Some entries that bind do so weakly or less than the wild type.

Sequences of proteins named here, by UniProt entry; tags and fusion partners are left off. A change or cut given only in a name is not applied to a line headed by its entry.
UniProt O00487: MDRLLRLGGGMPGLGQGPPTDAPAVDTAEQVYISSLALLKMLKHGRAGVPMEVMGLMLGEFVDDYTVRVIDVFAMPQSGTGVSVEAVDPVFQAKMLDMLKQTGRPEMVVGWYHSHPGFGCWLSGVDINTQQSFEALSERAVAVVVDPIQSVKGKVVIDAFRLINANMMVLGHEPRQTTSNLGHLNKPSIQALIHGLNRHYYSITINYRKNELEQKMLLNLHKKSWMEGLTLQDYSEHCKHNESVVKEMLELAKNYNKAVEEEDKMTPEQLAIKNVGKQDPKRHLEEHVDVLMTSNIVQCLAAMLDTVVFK
UniProt Q16186: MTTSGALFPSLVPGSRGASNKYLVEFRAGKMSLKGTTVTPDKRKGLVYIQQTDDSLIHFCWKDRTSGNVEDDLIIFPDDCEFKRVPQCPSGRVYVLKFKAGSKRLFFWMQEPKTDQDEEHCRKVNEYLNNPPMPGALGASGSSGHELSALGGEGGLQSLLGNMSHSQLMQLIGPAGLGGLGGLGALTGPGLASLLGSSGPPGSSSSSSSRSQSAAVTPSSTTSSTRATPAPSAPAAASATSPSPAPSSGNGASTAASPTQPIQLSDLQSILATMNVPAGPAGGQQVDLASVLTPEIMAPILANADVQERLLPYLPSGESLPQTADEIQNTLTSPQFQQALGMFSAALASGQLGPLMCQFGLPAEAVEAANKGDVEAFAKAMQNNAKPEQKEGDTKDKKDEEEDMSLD
UniProt Q9Y5K5: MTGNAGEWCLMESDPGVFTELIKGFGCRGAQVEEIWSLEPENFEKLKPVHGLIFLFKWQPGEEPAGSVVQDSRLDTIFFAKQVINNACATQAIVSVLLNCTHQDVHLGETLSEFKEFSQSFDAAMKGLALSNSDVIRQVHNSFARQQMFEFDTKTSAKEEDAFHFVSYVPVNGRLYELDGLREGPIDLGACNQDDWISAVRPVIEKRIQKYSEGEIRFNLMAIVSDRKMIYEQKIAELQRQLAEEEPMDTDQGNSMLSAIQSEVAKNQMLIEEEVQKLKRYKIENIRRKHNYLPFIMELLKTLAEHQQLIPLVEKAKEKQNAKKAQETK

Key:
[1] = biological target: RPN11-HTBH (human) (UniProt O00487); test: pull-down
[2] = biological target: RPN11-HTBH (human) (UniProt O00487); test: pull-down; remark: listed apart in the source
[3] = biological target: RPN11-HTBH (human) (UniProt O00487); test: pull-down + native gel or EMSA

Row | Substance | binding [1] | binding [2] | binding [3]
1 | RPN13 (endogenous) (from UniProt Q16186 1-407) | binds | binds | 
2 | UCH37 C88A•RPN13 complex (from UniProt Q9Y5K5;Q16186) |  |  | binds
3 | UCH37•RPN13 complex (from UniProt Q9Y5K5;Q16186) |  |  | binds
